Source: patent US10988812B2, “Fusion genes associated with progressive prostate cancer” (UNIVERSITY OF PITTSBURGH - OF THE COMMONWEALTH SYSTEM OF …, priority 2013, dated 2021)
For at least one compound, name, drawing or mass did not settle the structure.

Tested on: SLC45A2-AMACR transformed PC3 cells (PC3/SLAM)
Assay: Cell growth inhibition / killing of SLC45A2-AMACR transformed PC3 cells (with or without tetracycline induction)
Assay type: cell-based, human

| SMILES | specific inhibition of SLC45A2-AMACR expressing PC3 cells (FIG. 26) | sensitization of PC3 cells by expression of SLC45A2-AMACR (SLC45A2-AMACR expressing versus non-expressing PC3 cells) |
| --- | --- | --- |
| O=c1c2ccccc2[se]n1-c1ccccc1 [Ebselen] | specifically inhibits | – |
| CO[C@H]1C[C@@H]2CC[C@@H](C)[C@@](O)(O2)C(=O)C(=O)N2CCCC[C@H]2C(=O)O[C@H]([C@H](C)C[C@@H]2CC[C@@H](O)[C@H](OC)C2)CC(=O)[C@H](C)/C=C(\C)[C@@H](O)[C@@H](OC)C(=O)[C@H](C)C[C@H](C)/C=C/C=C/C=C/1C [Rapamycin] | – | only moderately sensitized |
